Assay results taken from patent US20040138422A1 (published 2004).
No constants are given. Whether binding was seen depends on the method and setting. Some results given as binding are weak or reduced against the parent protein; the word gives no strength.

Amino acid sequences for entries named in this document (tags omitted). A change or cut given only in a name is not applied to a line headed by its entry.
UniProt P51671: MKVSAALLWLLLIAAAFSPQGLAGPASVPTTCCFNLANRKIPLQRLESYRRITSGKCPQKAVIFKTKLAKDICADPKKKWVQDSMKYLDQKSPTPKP

Biological target: T1, CCR3 on transfected cell line (UniProt P51677)
T1 sequence (looked up): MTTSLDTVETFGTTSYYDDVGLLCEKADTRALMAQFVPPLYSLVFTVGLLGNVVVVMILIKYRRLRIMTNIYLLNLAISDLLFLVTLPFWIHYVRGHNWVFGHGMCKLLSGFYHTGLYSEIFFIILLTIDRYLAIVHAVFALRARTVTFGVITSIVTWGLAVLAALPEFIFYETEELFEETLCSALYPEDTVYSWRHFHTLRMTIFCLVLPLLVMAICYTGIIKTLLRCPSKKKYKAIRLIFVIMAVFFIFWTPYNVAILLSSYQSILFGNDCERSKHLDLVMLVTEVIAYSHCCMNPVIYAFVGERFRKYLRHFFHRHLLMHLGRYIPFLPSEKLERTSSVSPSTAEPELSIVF
Test: whole cell binding assay on receptor-transfected cell line, biotinylated chemokine

“biotinylated CCL11/Eotaxin (biotin in position 73) (from UniProt P51671 24-97) (ligand)” was tested, and the binding was “binds”.
